Results deposited as PubChem BioAssay AID686937 (Drosophila RNAi Screening Center, 2013)

- Purpose: 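Knock-downs that reduce output of a secreted reporter enzyme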 (primary screen)
- Cells: Drosophila S2 cells expressing secreted horseradish peroxidase
- Reagents: long dsRNA against Drosophila genes
- Time to read-out: about 5.5 days (5 days dsRNA, then 12 h reporter induction)
- Challenge: reporter expression induced after 5 days of dsRNA, read 12 h later; inducer not stated
- Detection: 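Chemiluminescent measurement of peroxidase in the medium 12 h after reporter induction, following 5 days of dsRNA, given as a z-score per plate; higher means more secretion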
- Scale: z-score: higher = more reporter secreted into medium
The deposit covers about 23,000 reagents; shown is a random part of those with a known target gene and a result. 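Reduced-secretion tags in replicate 1 do not always agree with the z-scores; no criterion for assigning the tags was given.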 Reagents against one gene are numbered here. Not given: the amount of reagent.

gene knocked down | reagent | z-score, replicate 1 | z-score, replicate 2 | phenotype, replicate 1
CG11726 | 1 | 0.52 | 0.44 | –
CG5506 | 1 | 0.42 | 0.34 | –
CG9649 | 1 | 0.4 | 0.54 | –
CG11674 | 1 | 0.23 | 0.32 | –
RpS9 (Ribosomal protein S9) | 1 | -3.77 | -2.94 | reduced secretion
Rm62 | 1 | -0.19 | -0.7 | –
Apc (APC-like) | 1 | 0.29 | 0.45 | –
CG34276 | 1 | 0.37 | 0.46 | –
corn (cornetto) | 1 | 0.32 | 0.3 | –
corn (cornetto) | 2 | 0.19 | 0.25 | –
CG2887 | 1 | 0.25 | 0.14 | –
RpS26 (Ribosomal protein S26) | 1 | -4.01 | -3.59 | reduced secretion
dmrt93B (doublesex-Mab related 93B) | 1 | 0.32 | 0.44 | –
wds (will die slowly) | 1 | 0.16 | -0.02 | –
CG15097 | 1 | -3.45 | -2.45 | reduced secretion
jp (junctophilin) | 1 | 0.25 | 0.3 | –
jp (junctophilin) | 2 | 0.25 | -0.21 | –
CG15514 | 1 | 0.27 | 0.01 | –
Sgp (Sgroppino) | 1 | 0.3 | 0.36 | –
Rab30 | 1 | 0.01 | 0.18 | –
slo (slowpoke) | 1 | -0.36 | 0.32 | –
slo (slowpoke) | 2 | 0.51 | 0.45 | –
slo (slowpoke) | 3 | 0.35 | 0.17 | –
CG14323 | 1 | 0.04 | 0.02 | –
Srp72 (Signal recognition particle 72) | 1 | -0.55 | -0.67 | –
CG15734 | 1 | 0.14 | 0.44 | –
Corp (Companion of reaper) | 1 | 0.3 | 0.39 | –
CG2816 | 1 | 0.02 | 0.35 | –
CG5421 | 1 | 0.01 | 0.27 | –
Rpt4R (Regulatory particle triple-A ATPase 4-related) | 1 | -0.06 | 0.16 | –
CG14356 | 1 | 0.46 | 0.21 | –
Ance-3 | 1 | 0.4 | 0.24 | –
Ance-3 | 2 | 0.34 | 0.27 | –

Reformatted: results already given
{"gene knocked down":"jp (junctophilin)","reagent":2,"z-score, replicate 1":0.25,"z-score, replicate 2":-0.21}
{"gene knocked down":"CG15514","reagent":1,"z-score, replicate 1":0.27,"z-score, replicate 2":0.01}
{"gene knocked down":"Sgp (Sgroppino)","reagent":1,"z-score, replicate 1":0.3,"z-score, replicate 2":0.36}
